Source: publication PMC10163288
The other results are listed elsewhere or left out.

B1: il10ra_site1_sap_15_mot_HHH_b1_04940_000000219_0001_1_18_H_._HHH_b2_05338_0001_0000100008_0000001_0_0001 (protein)
chain: SSSSDAEWLVRQAQKALELARRNGDEEALRWAAEALLNLAKHLNDEELEEEARELLEELNSSSSS
B2: il10ra_site1_normal_mot_HHH_b2_04680_000000215_0001_1_16_H_._HHH_b1_04462_af2_0001_0000500043_0000001_0 (protein)
chain: SSSSDKETREAYEIAREAFHVEDEEEREELLEEALELAREGGNFALVFAIENLLRALREGSSSSS
B3: il10ra_site1_sap_20_mot_HHH_b1_05083_af2_000000148_0001_42_57_H_._HHH_b2_02934_0001_0000100002_0000002_0_0001_af2pred_0001 (protein)
chain: SSSSSEEVEELLEEAERLAEEGNPQEALEALFKASRIALELGDPELARKVDEVARRLLELLSSSS
B4: il10ra_site1_sap_16_mot_HHH_b2_07579_000000275_0001_1_19_H_._HHH_b1_02229_0001_0000300011_0000001_0_0001_af2pred_0001 (protein)
chain: SSSSDEEELRERIEELLEEARRIPDKREASFLFTRAFALANRNNDEELKREVEELAQRTSSSSSS
B5: il10ra_site1_normal_mot_HHH_b1_05357_000000034_0001_23_39_H_._HHH_b1_01900_0002_0000100005_0000001_0_af2pred_0001 (protein)
chain: SSSSSEDKEEVRRLLEEAEEYAEEGNPERVAYLLVRAFALANRNNNEELKRLVERVAKELISSSS
B6: il10ra_site1_normal_mot_HHH_b1_05189_000000097_0001_43_57_H_._HHH_b2_05352_0001_0000300024_0000001_0_af2pred_0001 (protein)
chain: SSSSDDEAVKRVAELLREALHIPDEEERRKILEEAQEVAEEGNSPVLEWAVESIRRKLERSSSSS
B7: il10ra_site1_sap_22_mot_ems_3hM_1776_000000199_0001_44_63_H_._HHH_b1_04086_af2_0001_0000100003_0000001_0_0001 (protein)
chain: SSSSDVAEEVKRAIEEALRLLRNGDPEEAERLLEELEEKLEERGNQLAIMAVRYALEIVQESSSS
B8: il10ra_site1_normal_mot_HHH_b2_03568_000000058_0001_1_19_H_._HHH_b1_05354_0001_0000100001_0000001_1 (protein)
chain: SSSSSDESYELARKAIEELVELFEEGDPEEVRRLAEEVIEELRELGDEVAALSIEHLLRALSSSS
B9: il10ra_site1_sap_18_mot_HHH_b2_02736_000000092_0001_22_38_H_._HHH_b2_04029_af2_0001_0000100005_0000002_0_0001 (protein)
chain: SSSSFHEVWRLSREIAEAIREGDEERVRELLEQLEELLEETGDPMVEYLLRVLRILFKHEFSSSS
B10: il10ra_site1_sap_19_mot_HHH_b2_06497_000000202_0001_1_20_H_._HHH_b1_04383_0001_0000200013_0000002_0_0001 (protein)
chain: SSSSDELEEATEEAEELAKELGDEELERMLRLLLETYKKHGDRIAEWLLRQAIRAVRNLHRSSSS
B11: il10ra_site1_sap_22_mot_HHH_b2_04274_000000146_0001_1_19_H_._HHH_b2_01039_af2_0001_0000100006_0000001_0_0001 (protein)
chain: SSSSSEVEELLEEAKELIERGNPEEALHVLFRALRLALHEGDAELLREIWELLKEVAERNSSSSS
B12: il10ra_site1_normal_mot_HHH_b2_07569_000000265_0001_38_56_H_._HHH_b2_07896_0001_0000200016_0000001_0 (protein)
chain: SSSSSDEEYEEEVRELLEEAKEIEDREEALEVLLEALQLAIQLGDPELVQLVWEVIKRLFSSSSS
B13: il10ra_site1_sap_18_mot_HHH_b1_05056_000000217_0001_1_20_H_._HHH_b1_01984_af2_0001_0000500013_0000002_0_0001 (protein)
chain: SSSSSSEELEEYIEELEELTRQGDEDRVLELLQEALRLAYQERDEEILQLLWEIAKRVAKSSSSS
B14: il10ra_site1_sap_35_mot_HHH_b1_00102_af2_000000216_0001_43_57_H_._HHH_b2_07123_af2_0001_0000100001_0000001_0_0001 (protein)
chain: SSSSSDREEIEEEVEELLEEAKKISDPRELSEVLLRAVQLAFRVGDPELLHEVWEVFERLSSSSS
B15: il10ra_site1_normal_mot_HHH_b2_02736_000000092_0001_22_38_H_._HHH_b1_02879_af2_0001_0000300020_0000001_0 (protein)
chain: SSSSSEIAQEVYELLREAIELLADGNPEEAEEVVREALELAEEAGNEVLAWQARFLLREIESSSS
B16: il10ra_site1_normal_mot_HHH_b1_02062_000000185_0001_1_20_H_._HHH_b1_06583_0001_0000300011_0000001_0_af2pred_0001 (protein)
chain: SSSSSEKLREALELSRRILELLAEGDKEEAKELLRELEELAEELNNPLLEHLLKRLERELNSSSS
B17: il10ra_site1_normal_mot_HHH_b2_00479_000000091_0001_1_12_H_._HHH_b1_06081_0001_0000100003_0000002_0_af2pred_0001 (protein)
chain: SSSSSKVVEEARKASERALELLRQGNEEEVERLLREALELLEEHNNLVLLFILESLLRRIKSSSS
B18: il10ra_site1_normal_mot_8756ee2cf497b5429c717dfc0c0bcfd6_0001_000000186_0001_1_13_H_._HHH_b2_00413_0001_0000400023_0000001_0_af2pred_0001 (protein)
chain: SSSSSDSDVNRRVIELSREALHIDDEEERREVLEEALELAEEGNNLDLLAVLKYILELLSSSSSS
B19: il10ra_site1_sap_13_mot_HHH_b2_00943_af2_000000149_0001_1_17_H_._HHH_b1_05740_0001_0000400009_0000001_0_0001 (protein)
chain: SSSSDKSQEIYEILRRVAEALLDGDPEEAEELLREAKRLAEELGNRLFRWQIEFLEELLKSSSSS
B20: il10ra_site1_normal_mot_HHH_b1_04065_000000255_0001_41_56_H_._HHH_b2_07881_0001_0000300032_0000001_0_af2pred_dldesign_0_af2pred (protein)
chain: SSSSDVKAEVDRLIEEARRRKEEGDEVAVATALREAMRLAYEAKDAELFKKVIDEAVRLYESSSS
B21: il10ra_site1_normal_mot_HHH_b1_00456_000000263_0001_1_17_H_._HHH_b2_02667_0001_0000400035_0000001_0_af2pred_0001 (protein)
chain: SSSSDKEEVEEVQRELKRLLEEGDEEELEELLKEAFQLAAKLRDDELAYALLRLFAELRSGSSSS
B22: il10ra_site1_normal_mot_HHH_b2_07579_000000275_0001_1_19_H_._HHH_b2_06527_0001_0000300022_0000002_0 (protein)
chain: SSSSSDEELREVYELIRKALHIDDPEERREVLEEALRIAEENNNAVFVFSIRHALRDVNSSSSSS
B23: il10ra_site1_normal_mot_HHH_b1_02464_000000069_0001_1_19_H_._HHH_b1_02613_0001_0000100010_0000002_0 (protein)
chain: SSSSDLEEEVERLEEELEELVKRNNHEEVSELLMRLARLAFEYNDEEIDRIVIRLARLLGSSSSS
B24: il10ra_site1_normal_mot_HHH_b1_04514_000000156_0001_1_18_H_._HHH_b1_01665_af2_0001_0000200012_0000001_0 (protein)
chain: SSSSDYEEVKKLIKRIVELLRNGNKEEAEKLIEELEELAEELNNPSVEFAARLLEEALKRSSSSS

Target: il10ra, Q13651
Assay: yeast display titration

Apparent Kd, inactive:
B1 no binding seen
B2 no binding seen
B3 no binding seen
B4 no binding seen
B5 no binding seen
B6 no binding seen
B7 no binding seen
B8 no binding seen
B9 no binding seen
B10 no binding seen
B11 no binding seen
B12 no binding seen
B13 no binding seen
B14 no binding seen
B15 no binding seen
B16 no binding seen
B17 no binding seen
B18 no binding seen
B19 no binding seen
B20 no binding seen
B21 no binding seen
B22 no binding seen
B23 no binding seen
B24 no binding seen

A run of entries from the list above, as a working copy:
Apparent Kd, inactive:
B16 no binding seen
B17 no binding seen
B18 no binding seen
B19 no binding seen
